Data source: PubChem BioAssay AID1259308 (NCATS, 2017)
Shown is one part, drawn at random, of about 59,000 deposited reagents. About 1,510 of all reagents (2.6%) were called active. 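Calls use total luciferase alone and ignore viability, so some active siRNAs may act by altering cell number.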 A number with no mark means an inactive call. Reagents against one gene are numbered here. Reagent sequences are not shown.

- Test: 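Candidate targets for better recombinant protein yield in mammalian cells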 (primary screen)
- System: human HEK293 embryonic kidney cells stably expressing firefly luciferase (HEK-CMV-Luc2-Hygro)
- Reagent: single siRNA against human genes, 0.8 pmol siRNA per well
- Timing: 72 h
- Detection: 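Luciferase light (ONE-Glo) measured on one replicate plate set and viability (CellTiter-Glo) on the other, scaled to a negative control siRNA, with robust z-scores and luciferase per cell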
- Reading the numbers: total luciferase, z-score and total luciferase, % of control: higher = more reporter protein produced; luciferase per cell, z-score: higher = more reporter output per viable cell; viable cells, % of control: higher = more viable cells
- Rule for the call: 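An siRNA counts as active if its total luciferase robust z-score exceeds 3; genes with two or more such siRNAs out of three were retested with fresh siRNAs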
- Calls: active = raised luciferase; inactive = no rise

target gene	reagent no.	total luciferase, z-score	total luciferase, % of control	luciferase per cell, z-score	viable cells, % of control
CPA2 (carboxypeptidase A2)	1	-0.0443	81	-0.122	93.5
CPA2 (carboxypeptidase A2)	2	-0.567	70.6	-0.816	97.8
CPA2 (carboxypeptidase A2)	3	-0.51	71.7	-0.402	89.1
PCDHGB3 (protocadherin gamma subfamily B, 3)	1	4.47 (active)	171	2.8	91.2
PCDHGB3 (protocadherin gamma subfamily B, 3)	2	0.391	89.7	0.227	94.4
PCDHGB3 (protocadherin gamma subfamily B, 3)	3	-0.0428	81	-0.421	101
PCDH1 (protocadherin 1)	1	0.681	95.4	0.53	92.8
PCDH1 (protocadherin 1)	2	0.265	87.2	0.617	82.8
PCDH1 (protocadherin 1)	3	-0.505	71.8	0.118	77.8
TRIM54 (tripartite motif containing 54)	1	0.13	84.5	-0.369	104
TRIM54 (tripartite motif containing 54)	2	-0.399	73.9	-0.473	93.6
TRIM54 (tripartite motif containing 54)	3	0.31	88.1	0.294	91.1
LRFN4	1	-0.713	67.7	-0.874	95.2
LRFN4	2	-0.815	65.7	0.428	65.6
LRFN4	3	-0.0466	81	-0.137	93.8
HOXA7 (homeobox A7)	1	0.292	87.7	-0.225	104
HOXA7 (homeobox A7)	2	-1.65	49.1	-1.66	85
HOXA7 (homeobox A7)	3	0.29	87.6	1.14	72.6
EHD1 (EH domain containing 1)	1	0.0486	82.9	-0.286	99.8
EHD1 (EH domain containing 1)	2	-0.696	68.1	-0.0936	77.9
EHD1 (EH domain containing 1)	3	0.0853	83.6	1.95	55.9
KCNK16 (potassium two pore domain channel subfamily K member 16)	1	-2.67	28.8	-3.78	87.1
KCNK16 (potassium two pore domain channel subfamily K member 16)	2	0.0165	82.2	0.0456	90.8
KCNK16 (potassium two pore domain channel subfamily K member 16)	3	0.817	98.1	-0.123	113
C4orf33 (chromosome 4 open reading frame 33)	1	-0.199	77.9	-0.0759	88.8
C4orf33 (chromosome 4 open reading frame 33)	2	-0.242	77.1	-0.467	97.4
C4orf33 (chromosome 4 open reading frame 33)	3	-0.368	74.6	-0.241	88.8

The list goes on; the last 7 above are carried over.
target gene	reagent no.	total luciferase, z-score	total luciferase, % of control	luciferase per cell, z-score	viable cells, % of control
EHD1 (EH domain containing 1)	3	0.0853	83.6	1.95	55.9
KCNK16 (potassium two pore domain channel subfamily K member 16)	1	-2.67	28.8	-3.78	87.1
KCNK16 (potassium two pore domain channel subfamily K member 16)	2	0.0165	82.2	0.0456	90.8
KCNK16 (potassium two pore domain channel subfamily K member 16)	3	0.817	98.1	-0.123	113
C4orf33 (chromosome 4 open reading frame 33)	1	-0.199	77.9	-0.0759	88.8
C4orf33 (chromosome 4 open reading frame 33)	2	-0.242	77.1	-0.467	97.4
C4orf33 (chromosome 4 open reading frame 33)	3	-0.368	74.6	-0.241	88.8
BARHL2 (BarH like homeobox 2)	1	0.0989	83.9	-0.266	101
BARHL2 (BarH like homeobox 2)	2	-0.481	72.3	-0.345	88.5
BARHL2 (BarH like homeobox 2)	3	-2.95	23.2	-2.25	46.8
RBM25 (RNA binding motif protein 25)	1	-1.69	48.3	-0.535	62.1
RBM25 (RNA binding motif protein 25)	2	-0.603	69.9	-0.0856	79.9
RBM25 (RNA binding motif protein 25)	3	-0.371	74.5	0.661	69.9
PPIG (peptidylprolyl isomerase G)	1	1.46	111	1.16	91.2
PPIG (peptidylprolyl isomerase G)	2	-0.355	74.8	-0.392	92.7
PPIG (peptidylprolyl isomerase G)	3	0.0391	82.7	-0.332	101
ROPN1L (rhophilin associated tail protein 1 like)	1	-0.754	66.9	-0.234	79.5
ROPN1L (rhophilin associated tail protein 1 like)	2	-1.19	58.1	-1.34	92.4
ROPN1L (rhophilin associated tail protein 1 like)	3	0.00772	82	0.661	77
ROPN1L (rhophilin associated tail protein 1 like)	4	-0.0664	80.6	-0.966	116
ROPN1L (rhophilin associated tail protein 1 like)	5	0.758	97	2.47	56.6
ROPN1L (rhophilin associated tail protein 1 like)	6	0.144	84.7	0.4	85.2
OR56B1 (olfactory receptor family 56 subfamily B member 1)	1	-0.432	73.3	-0.111	84.3
OR56B1 (olfactory receptor family 56 subfamily B member 1)	2	0.533	92.5	0.303	95.4
OR56B1 (olfactory receptor family 56 subfamily B member 1)	3	3.05 (active)	143	1.78	99.6
SCNN1D (sodium channel epithelial 1 subunit delta)	1	2.17	125	2.07	80.9
SCNN1D (sodium channel epithelial 1 subunit delta)	2	0.487	91.6	0.209	96.9
SCNN1D (sodium channel epithelial 1 subunit delta)	3	0.907	99.9	1.97	66.4
ESR1 (estrogen receptor 1)	1	0.157	85	-0.331	104
ESR1 (estrogen receptor 1)	2	1.66	115	0.744	106
ESR1 (estrogen receptor 1)	3	-0.816	65.7	-0.892	92.8
PHOSPHO2 (phosphatase, orphan 2)	1	1.02	102	0.965	88.6
PHOSPHO2 (phosphatase, orphan 2)	2	-1.82	45.6	-1.18	69.5
PHOSPHO2 (phosphatase, orphan 2)	3	-2.05	41.2	-2.37	85.8
ATPAF2 (ATP synthase mitochondrial F1 complex assembly factor 2)	1	0.363	89.1	0.436	88.8
ATPAF2 (ATP synthase mitochondrial F1 complex assembly factor 2)	2	-0.984	62.3	-0.602	81.6
ATPAF2 (ATP synthase mitochondrial F1 complex assembly factor 2)	3	-0.67	68.6	-0.454	86.3
